# The whole screen tested about 580,000 compounds, of which about 6,100 (1.1%) were called active. Inconclusive means that the source gave no clear call. Such entries were picked first, then a sample of the others. The call rests on the fitted dose curve; in most records, active means well fitted inhibition curve with a large enough effect; inconclusive means small, poorly fitted or top-dose-only effect, or another doubt; inactive means no such curve, though single readings can be large or run the other way. A potency beside an inconclusive call is a rough fit, not a confirmed value.
# The chains behind the UniProt entries cited, without tags or fusion partners. Where a name states a change or a piece, a line headed by the entry shows the natural chain unless it says otherwise.
# UniProt P18054: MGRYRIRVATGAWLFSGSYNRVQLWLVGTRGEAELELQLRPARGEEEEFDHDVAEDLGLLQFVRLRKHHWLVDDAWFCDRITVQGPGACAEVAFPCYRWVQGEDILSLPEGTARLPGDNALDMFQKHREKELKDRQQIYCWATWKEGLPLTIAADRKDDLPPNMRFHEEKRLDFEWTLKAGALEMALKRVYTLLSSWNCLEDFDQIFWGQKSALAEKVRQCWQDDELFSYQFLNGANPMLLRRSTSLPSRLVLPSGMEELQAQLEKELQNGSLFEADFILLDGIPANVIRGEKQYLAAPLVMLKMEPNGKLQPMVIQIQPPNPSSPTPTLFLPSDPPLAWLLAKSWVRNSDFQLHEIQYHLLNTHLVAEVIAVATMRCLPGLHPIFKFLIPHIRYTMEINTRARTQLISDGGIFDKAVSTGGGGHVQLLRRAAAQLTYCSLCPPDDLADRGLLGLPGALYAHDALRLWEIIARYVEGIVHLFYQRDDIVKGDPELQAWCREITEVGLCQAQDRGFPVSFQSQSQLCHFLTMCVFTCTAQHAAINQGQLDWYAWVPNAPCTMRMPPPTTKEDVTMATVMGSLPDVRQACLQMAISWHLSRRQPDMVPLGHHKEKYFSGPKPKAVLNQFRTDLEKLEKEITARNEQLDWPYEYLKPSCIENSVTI
# Molecular target: Polyunsaturated fatty acid lipoxygenase ALOX12 (Homo sapiens) (UniProt P18054)
# Experiment: Primary qHTS assay for inhibitors of human arachidonate 12S-lipoxygenase (ALOX12): Round 2
# Conditions: purified 12hLO, xylenol orange hydroperoxide absorbance; activity change, negative = inhibition: at 108 µM (top of the series) unless noted
# Method in brief: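 Purified human 12hLO at 150 nM in 25 mM Hepes, 0.01% Triton X-100, pH 7.0, preincubated 15 min at room temperature with compound. Reaction started with 40 uM arachidonic acid, 30 min at room temperature. Hydroperoxide measured by Fe-xylenol orange, 573/405 nm absorbance ratio.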
# On the % scale 0 is the no-effect control and ±100 the full control effect; potency means the concentration at half of the fitted maximal effect.
SMILES,Potency,"activity change, negative = inhibition"
CC(C)c1ccc(C(=O)O)cc1,"inconclusive: 6.31 µM [inhibitor, full curve, poor fit]",–
COc1ccc(CC2(CO)CCN(S(=O)(=O)c3cccc4cccnc34)CC2)cc1,"inconclusive: 100 µM [inhibitor, single point]",–
C/C(=N/Nc1ccccc1C(F)(F)F)c1cc(Cl)ccc1Cl,"inconclusive: 28.2 µM [inhibitor, partial curve]",–
COc1ccc(-c2cnc(N)n2C)cc1,–,inactive: -14.2%
O=C(NCCN1CCOCC1)c1cccc(Br)c1,"inconclusive: 112 µM [inhibitor, partial curve, poor fit]",–
CCc1nnc(NS(=O)(=O)c2ccc(NC(=O)COc3ccc(Cl)c(C)c3)cc2)s1,"inconclusive: 2.24 µM [inhibitor, full curve, poor fit]",–
Cc1ccc(C(=O)N2CCC(n3cc(-c4nc(C)no4)nn3)C2)c(C)c1 (stereo unspecified),"inconclusive: 35.5 µM [inhibitor, partial curve, poor fit]",–
CN(Cc1ccccc1F)c1ncnc2sccc12,–,inactive: -11.1%
Brc1ccc(C2Nc3cccc4cccc(c34)N2)s1,"inconclusive: 141 µM [inhibitor, partial curve, poor fit]",–
Oc1ccccc1CNC[C@H]1O[C@H](Cc2cc(CN3CCCCC3)on2)CC[C@@H]1O,"inconclusive: 31.6 µM [inhibitor, partial curve, poor fit]",–
Cc1c(C(=O)NC(=S)Nc2ccc3c4c(cccc24)CC3)cccc1[N+](=O)[O-],"inconclusive: 39.8 µM [inhibitor, partial curve, poor fit]",–
O=C(O)/C=C\C(=O)Nc1ccccc1C#Cc1ccccc1,"inconclusive: 28.2 µM [inhibitor, partial curve, poor fit]",–
COC(=O)c1ccccc1NC(=O)c1ccc(N2CCCN(Cc3ccccc3F)C2=O)cc1,"inconclusive: 5.01 µM [inhibitor, full curve, poor fit]",–
Cc1ccc(C(=O)Nc2cccc(C(=O)N(C)C)c2)cc1,–,inactive: -34.4%
O=C(NCc1ccccc1)c1onc(CSc2ccccc2)c1C(=O)NCc1ccccc1,"inconclusive: 89.1 µM [inhibitor, partial curve, poor fit]",–
Cc1ccccc1C(=O)Nc1ccnn1C1CCN(C(=O)C2(N)CCC2)CC1,"inconclusive: 3.55 µM [inhibitor, full curve, poor fit]",–
O=S1(=O)CCOC[C@H](CC2CCCCC2)N1Cc1ccc(Cl)cc1,–,inactive: 12.3%
O=C(COc1ccc([N+](=O)[O-])cc1)Nc1ccc2oc(-c3cccc(F)c3)nc2c1,"inconclusive: 15.8 µM [inhibitor, full curve, poor fit]",–
Cc1ccc(CCNC(=O)CCc2nc(CS(=O)(=O)c3ccccc3)no2)cc1,–,inactive: 2.92%
O=C(Nc1ccc(-c2cccc(F)c2)cc1)C1CCCN1Cc1ccc(CO)o1 (stereo unspecified),"inconclusive: 2.82 µM [inhibitor, full curve, poor fit]",–
O=C1CN(S(=O)(=O)c2ccccc2)C[C@H]2[C@H](c3ccc(Br)cc3)[C@H](CO)N12,"inconclusive: 50.1 µM [inhibitor, partial curve, poor fit]",–
CC(C)c1cc(C(=O)O)c2c(C3CC3)nn(-c3ccccc3)c2n1,–,inactive: -22.1%

SMILES,Potency,"activity change, negative = inhibition"
CC(=O)c1ccccc1NC(=O)CC(C)(C(=O)O)c1ccccc1 (stereo unspecified),"inconclusive: 39.8 µM [inhibitor, partial curve, poor fit]",–
Cc1ccc(CNC(=O)C2(CC(=O)NC(C)C)CCCC2)cc1,"inconclusive: 100 µM [inhibitor, single point]",–
O=C(N/N=C/c1ccc(Cl)s1)c1ccc2ccccc2c1,"inconclusive: 44.7 µM [inhibitor, partial curve, poor fit]",–
O=C(NCc1ccccn1)c1ccc(C(F)(F)F)cc1,"inconclusive: 28.2 µM [inhibitor, partial curve, poor fit]",–
CN(C)CCOC1c2ccccc2-c2ccccc21,"inconclusive: 0.398 µM [inhibitor, full curve, poor fit]",–
CCOC(=O)C(C)N1CCOc2c(O)cc(-c3cccc(Cl)c3)cc2C1 (stereo unspecified),"inconclusive: 25.1 µM [inhibitor, full curve]",–
CCCCN1CCc2c([nH]c3c(C)cccc23)C1=O,–,inconclusive: -36.1% [inhibitor]
C=CCNCC#CCOc1ccc(OC)cc1,"inconclusive: 0.891 µM [inhibitor, full curve, poor fit]",–
COc1ccc(/C(O)=C2\C(=O)C(=O)N(CC3CCCO3)C2c2cc(OC)ccc2OC)cc1 (stereo unspecified),"inconclusive: 28.2 µM [inhibitor, partial curve, poor fit]",–
CCOc1ccc2c(c1)C(C)=CC(C)(C)N2C(=O)Nc1ccccc1F,"inconclusive: 44.7 µM [inhibitor, partial curve, poor fit]",–
COc1cccc(CNC(=O)Nc2cccs2)c1,"inconclusive: 50.1 µM [inhibitor, single point]",–
Cc1ccnc(NS(=O)(=O)c2ccc(NC(=O)c3oc4ccccc4c3C)cc2)n1,"inconclusive: 112 µM [inhibitor, single point]",–
O=S(=O)(c1ccc2oc(=S)[nH]c2c1)N1CCOCC1,"inconclusive: 50.1 µM [inhibitor, partial curve, poor fit]",–
Cc1c(-c2ccccc2)n(O)[n+]([O-])c1-c1ccccc1,"inconclusive: 1.41 µM [inhibitor, full curve]",–
CCOC(=O)c1ccc(NC(=O)Cc2coc3cc(C)cc(C)c23)cc1,–,inactive: -15.2%
Oc1[nH]c2ccccc2c1N=Nc1ncnc2c1oc1ccccc12,–,inactive: 2.93%
COc1ccc(Cc2nnc(SCC(=O)Nc3ccc(Br)c(C)c3)n2C)cc1,–,inactive: 36.3%
CC1CCN(S(=O)(=O)c2ccc3c(c2)CCC(=O)N3CC(=O)N2CCC3(CC2)OCCO3)CC1,"inconclusive: 126 µM [inhibitor, single point]",–
O=C(NCc1ccc(F)cc1)c1ccc[n+]([O-])c1,–,inactive: 8.52%
O=C(CCCCn1cnc2c(=S)nc[nH]c21)Nc1ccc(C(=O)O)c(O)c1,"inconclusive: 1.78 µM [inhibitor, full curve, poor fit]",–
CN1CCc2c([nH]c3ccccc23)C12CCN(S(=O)(=O)c1cccnc1)CC2,–,inactive: 0.992%
NS(=O)(=O)c1ccc(N=Nc2ccc(O)c3ncccc23)cc1,"inconclusive: 89.1 µM [inhibitor, partial curve, poor fit]",–

# Arranged by formula weight (low to high): part of the list above
SMILES,Potency,"activity change, negative = inhibition"
CC(C)c1ccc(C(=O)O)cc1,"inconclusive: 6.31 µM [inhibitor, full curve, poor fit]",–
C=CCNCC#CCOc1ccc(OC)cc1,"inconclusive: 0.891 µM [inhibitor, full curve, poor fit]",–
COc1ccc(Cc2nnc(SCC(=O)Nc3ccc(Br)c(C)c3)n2C)cc1,–,inactive: 36.3%

# Additional records:

SMILES,Potency,"activity change, negative = inhibition"
Cc1ccc(O)c(Sc2cc(C)ccc2O)c1,"inconclusive: 89.1 µM [inhibitor, partial curve, poor fit]",–
C=CCOc1cccc(C2/C(=C(\O)c3ccc(F)cc3)C(=O)C(=O)N2CCN(C)C)c1 (stereo unspecified),"inconclusive: 20 µM [inhibitor, partial curve, poor fit]",–
CNc1cnc(-c2ccc(C(=O)N3CCOCC3)cc2)cn1,"inconclusive: 89.1 µM [inhibitor, partial curve, poor fit]",–
O=C(NCC1CCOCC1)Nc1ccccc1Cl,"inconclusive: 50.1 µM [inhibitor, partial curve, poor fit]",–
COc1ccccc1N1CCN(C(=O)C2c3ccccc3Oc3ccccc32)CC1,–,inactive: -10.8%
Cc1ccc2c(CC(=O)NCC3(N4CCOCC4)CCCCC3)coc2c1C,"inconclusive: 70.8 µM [inhibitor, partial curve, poor fit]",–
Cc1cc([N+](=O)[O-])ccc1NC(=O)CSc1nccn1C,–,inconclusive: -35.5% [inhibitor]
COc1ccc(C(=O)NC(=S)Nc2ccc3[nH]c(=O)[nH]c3c2)cc1Br,"inconclusive: 79.4 µM [inhibitor, partial curve, poor fit]",–
Cc1nc2ccccc2nc1N1CCCCC1,–,inactive: 1.22%
COc1cccc(NC(=O)CN(C)CC(=O)NCC(=O)Nc2ccc(F)cc2)c1,–,inactive: 23.4%
Cc1ccc(N(C)S(=O)(=O)c2ccc3[nH]cc(C(=O)O)c(=O)c3c2)cc1C,"inconclusive: 0.562 µM [inhibitor, full curve, poor fit]",–
Cc1ccc(N2C(=O)CSC2=S)cc1C,–,inactive: 35.3%
C=Cc1ccc(Cn2c(=O)n(-c3ccccc3C)c(=O)c3c4c(sc32)CN(C(C)=O)CC4)cc1,–,inactive: 0%
OC(c1cccc(Cl)c1)c1nc(-c2ccc3c(c2)OCO3)cs1 (stereo unspecified),"inconclusive: 100 µM [inhibitor, single point]",–
COC(=O)c1c(NC(=S)Nc2cc(OC)c(Cl)cc2OC)sc2c1CCCCC2,active: 39.8 µM,–
O=C(OCC(=O)N1CCN(C(=O)c2ccco2)CC1)c1cc(F)c(F)cc1Cl,"inconclusive: 141 µM [inhibitor, single point]",–
Cn1nccc1C(O)c1cc2n(n1)CCN(CC(=O)N1CCOCC1)C2 (stereo unspecified),"inconclusive: 56.2 µM [inhibitor, partial curve, poor fit]",–
Cc1ccc(C(c2sc3nc(-c4ccco4)nn3c2O)N2CCCCC2)cc1 (stereo unspecified),"inconclusive: 56.2 µM [inhibitor, partial curve, poor fit]",–
O=C1c2ccccc2C(=O)c2cc(N3CCCCC3)ccc21,"inconclusive: 100 µM [inhibitor, single point]",–
Cc1ccc(CC(=O)NC2CC3CCC2(C)C3(C)C)cc1C (stereo unspecified),"inconclusive: 100 µM [inhibitor, single point]",–
Cc1ccccc1C(=O)N(CC(=O)Nc1sc(C)c(C)c1C(N)=O)C1CCCC1,–,inactive: -19.8%
COc1ccc(-n2c(-c3ccc(Br)cc3)n[nH]c2=S)cc1,"inconclusive: 39.8 µM [inhibitor, partial curve]",–
